Laboratory results reported in the supplement of paper PMC7858590.
± gives the standard deviation of the averaged measurements. The list shows a part of the results. Repeats in this data set agree poorly, so a single value says little.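 M-CSF-grown macrophages from blood monocytes pooled across four healthy donors, in an M1-like state, received compounds that had driven resting macrophages M2-like in a first screen. Each Z-score t-tests eccentricity of ~1000 cells per well against same-row DMSO wells. Compounds passing the +6 M2 cutoff, set by standard cytokine controls, count as reprogramming. M1 cutoff: −4.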 Residues, ends and D or L forms follow the SMILES beside them. *: point of attachment. Cbz = O=C(OCc1ccccc1)*

tested on: human monocyte-derived macrophages (polarized); test: cell shape (eccentricity) Z-score vs DMSO control; macrophage state: M1-polarized (IFNg + TNFa), cytokines removed before treatment; higher = more elongated, M2-like morphology; conditions: 24 h; 10 µM

SMILES | cell shape (Z-score)
CC1(C)CCC(CN2CCN(c3ccc(C(=O)NS(=O)(=O)c4ccc(NCC5CCOCC5)c([N+](=O)[O-])c4)c(Oc4cnc5[nH]ccc5c4)c3)CC2)=C(c2ccc(Cl)cc2)C1 | 4.12 ± 4.7
CC1(C)CC[C@]2(C(=O)O)CC[C@]3(C)C(=CCC4[C@@]5(C)CC[C@@H](O)C(C)(C)C5CC[C@]43C)C2C1 (some centres undefined) | 1.51 ± 1.7
CC(C(=O)Nc1cccc(/N=C/c2c(O)ccc3ccccc23)c1)c1ccccc1 (centres undefined) | 1.8 ± 6.6
N[C@@H](CC(=O)N1CCn2c(nnc2C(F)(F)F)C1)Cc1cc(F)c(F)cc1F | 1.27 ± 7.8
CO[C@H]1C[C@H](O[C@@H]2/C(C)=C/C[C@@H]3C[C@@H](C[C@]4(CC[C@H](C)[C@@H](C5CCCCC5)O4)O3)OC(=O)[C@@H]3C=C(C)/C(=N/O)[C@H]4OC/C(=C\C=C\[C@@H]2C)[C@]43O)O[C@@H](C)[C@@H]1O | 7.86
Cc1ccc(S(=O)(=O)OCC(=O)Nc2ccc(C(=O)O)c(O)c2)cc1 | 3.87 ± 8.3
O=c1cc(-c2ccc(O)cc2)oc2cc(O)ccc12 | 6.39 ± 2.5
NC(=O)C1CCCc2c1[nH]c1ccc(Cl)cc21 (centres undefined) | 3.07 ± 4.2
C[C@H](CO)N1C[C@H](C)[C@H](CN(C)C(=O)Nc2cc(F)ccc2F)Oc2cc(C#CC3CCCC3)ccc2S1(=O)=O | -7.92 ± 10
CC[C@H](Nc1ncnc2[nH]cnc12)c1nc2cccc(F)c2c(=O)n1-c1ccccc1 | -0.758 ± 8.8
CC(C)(C)n1nc(-c2cccc3ccccc23)c2c(N)ncnc21 | 10.6 ± 4.4
Cn1c2ccccc2c2c3c(c4c5ccccc5n(CCC#N)c4c21)CNC3=O | 1.31 ± 0.5
C[C@@H](N)[C@H]1CC[C@H](C(=O)Nc2ccncc2)CC1 | 9.51
COc1cc(OC)c(/C=C/S(=O)(=O)Cc2ccc(OC)c(NCC(=O)O)c2)c(OC)c1 | -2.14 ± 0.53
COc1ccc2c(c1OC)CN(C)CCc1cc3c(cc1C(=O)C2)OCO3 | 1.12 ± 5.4
O=C(Nc1ccc(OC(F)(F)F)cc1)c1sccc1NCc1ccnc2ccccc12 | -3.45 ± 3.3
N#CC[C@H](C1CCCC1)n1cc(-c2ncnc3[nH]ccc23)cn1 | 2.64 ± 0.99

SMILES | cell shape (Z-score)
CC(C)C[C@@H](C=O)NC(=O)[C@H](CC(C)C)NC(=O)[C@H](CC(C)C)NC(=O)OCc1ccccc1 (Cbz-Leu-Leu-Leu-aldehyde) | -4.6 ± 6.9
O=C(NCCN1CCCCC1)c1ccc(I)cc1 | 3.13 ± 0.052
C=C1C(=O)O[C@H]2C3=C(C)C[C@H](OC(C)=O)C[C@]3(C)CC[C@@H]12 | -2 ± 3.2
O=S(=O)(c1cccc2cnccc12)N1CCCNCC1 | 0.727 ± 0.12
NC(=O)Nc1sc(-c2ccc(F)cc2)cc1C(N)=O | -5.64 ± 6
CCOC(=O)N[C@@H]1CC[C@@H]2[C@@H](C1)C[C@H]1C(=O)O[C@H](C)[C@H]1[C@H]2/C=C/c1ccc(-c2cccc(F)c2)cn1 | 0.133 ± 4.6
CC[C@]12CCCN3CCc4c(n(c5ccccc45)[C@@](O)(C(=O)OC)C1)[C@@H]32 | -0.729 ± 3.2
CCCCCCCCCCC(C)(C)C(=O)Nc1c(OC)cc(OC)cc1OC | -5.98 ± 9.2
Cc1onc(-c2ccccc2)c1-c1ccc(S(N)(=O)=O)cc1 | -1.11 ± 5.8
CN(C)C(=O)n1nnnc1Cc1ccc(-c2ccccc2)cc1 | 6.57 ± 5.6
c1ccc2c(Oc3nc(Nc4ccc(N5CCOCC5)cc4)c4ncn(C5CCCCC5)c4n3)cccc2c1 | 9.65
COc1cc2ncn(-c3cc(OCc4ccccc4C(F)(F)F)c(C(N)=O)s3)c2cc1OC | 11.5 ± 6.9
COc1ccc2oc(-c3ccccc3OC)cc(=O)c2c1 | 7.48
COCc1c(C(C)C)nc(C(C)C)c(/C=C/[C@@H](O)C[C@@H](O)CC(=O)O)c1-c1ccc(F)cc1 | 5.33 ± 0.19
N#Cc1ccc(COC[C@H]2O[C@@H](n3c(NCc4ccc(Cl)c(Cl)c4)nc4c(N)ncnc43)[C@H](O)[C@@H]2O)cc1 | 0.665 ± 3.7
Nc1nc2c(ncn2COCCO)c(=O)[nH]1 | 4.43 ± 8.4
C/C=C/c1ccc2c(c1)O[C@@H](CN(C)C(=O)c1ccccc1)[C@@H](C)CN([C@@H](C)CO)S2(=O)=O | 4.25 ± 4.4
